Results are given in words; binding and its absence hold for the method and conditions named. In cells and extracts the contact can be indirect. Binding can be weak; no strength is given.
Target: GST-RhoGDIβ fusion protein (human)
Assay: pull-down; GST-RhoGDIβ bound to glutathione-Sepharose beads; 300 μg lysate of 293T cells transfected with GFP-tagged ZAK constructs, pre-cleared; at least 2 h at 4°C in PD buffer (50 mM Tris-HCl pH 8.0, 150 mM NaCl, 0.5% NP40, 1 mM DTT, 1 mM PMSF); immunoblotting; only the target purified

binding: binds
B1: ZAK 6-7 (fragment of amino acids 600-700 of ZAK) (domain or fragment, UniProt Q9NYL2 600-700)
chain: PFFSHFDGQDSYAAAVRRPQVPIKYQQITPVNQSRSSSPTQYGLTKNFSSLHLNSRDSGFSSGNTDTSSERGRYSDRSRNKYGRGSISLNSSPRGRYSGKS

— paper PMC2653512
